Test results published in publication PMC6880163 (Journal of Virology, 2019).
No constants are given. Whether binding was seen depends on the method and setting. In cells and extracts the contact can be indirect. Some binding calls cover weakened binding; strength is not graded here. For some assays here: Sequences can lack the tags named with a protein.

Amino acid sequences for entries named in this document (tags omitted). Residues count along the entry.
UniProt P03520, residues 32-107: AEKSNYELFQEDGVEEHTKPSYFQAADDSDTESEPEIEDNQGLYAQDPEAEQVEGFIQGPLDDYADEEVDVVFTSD

B1: TagRFP/TRIM69 (wild type) (protein, UniProt Q86WT6 1-500)
chain: MEVSTNPSSNIDPGDYVEMNDSITHLPSKVVIQDITMELHCPLCNDWFRDPLMLSCGHNFCEACIQDFWRLQAKETFCPECKMLCQYNNCTFNPVLDKLVEKIKKLPLLKGHPQCPEHGENLKLFSKPDGKLICFQCKDARLSVGQSKEFLQISDAVHFFTEELAIQQGQLETTLKELQTLRNMQKEAIAAHKENKLHLQQHVSMEFLKLHQFLHSKEKDILTELREEGKALNEEMELNLSQLQEQCLLAKDMLVSIQAKTEQQNSFDFLKDITTLLHSLEQGMKVLATRELISRKLNLGQYKGPIQYMVWREMQDTLCPGLSPLTLDPKTAHPNLVLSKSQTSVWHGDIKKIMPDDPERFDSSVAVLGSRGFTSGKWYWEVEVAKKTKWTVGVVRESIIRKGSCPLTPEQGFWLLRLRNQTDLKALDLPSFSLTLTNNLDKVGIYLDYEGGQLSFYNAKTMTHIYTFSNTFMEKLYPYFCPCLNDGGENKEPLHILHPQ
B2: Cherry/TRIM69 (wild type) (protein, UniProt Q86WT6 1-500)
chain: MEVSTNPSSNIDPGDYVEMNDSITHLPSKVVIQDITMELHCPLCNDWFRDPLMLSCGHNFCEACIQDFWRLQAKETFCPECKMLCQYNNCTFNPVLDKLVEKIKKLPLLKGHPQCPEHGENLKLFSKPDGKLICFQCKDARLSVGQSKEFLQISDAVHFFTEELAIQQGQLETTLKELQTLRNMQKEAIAAHKENKLHLQQHVSMEFLKLHQFLHSKEKDILTELREEGKALNEEMELNLSQLQEQCLLAKDMLVSIQAKTEQQNSFDFLKDITTLLHSLEQGMKVLATRELISRKLNLGQYKGPIQYMVWREMQDTLCPGLSPLTLDPKTAHPNLVLSKSQTSVWHGDIKKIMPDDPERFDSSVAVLGSRGFTSGKWYWEVEVAKKTKWTVGVVRESIIRKGSCPLTPEQGFWLLRLRNQTDLKALDLPSFSLTLTNNLDKVGIYLDYEGGQLSFYNAKTMTHIYTFSNTFMEKLYPYFCPCLNDGGENKEPLHILHPQ

How the values were obtained:
[1] = biological target: TagRFP/TRIM69 (wild type) (human) (UniProt Q86WT6); assay: cross-linking; intact doxycycline-induced HT1080 cells in 1x PBS treated with 0.2 mM EGS (membrane-permeable) for 30 min at room temperature, lysed in LDS sample buffer, Western blot with anti-RFP antibody
[2] = biological target: GST/P(32-107) wild type (vesicular stomatitis virus, Indiana serotype) (UniProt P03520); assay: pull-down

| Binder | binding [1] | binding [2] |
| --- | --- | --- |
| B1 | binds | – |
| B2 | – | binds |
